# This is one part of the list.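 The calls were made as follows: active = dose-dependent thermal stabilisation significant by F-test of dose-response against flat model at 10% FDR; inactive = not significant.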
# Sequences of proteins named here, by UniProt entry; tags and fusion partners are left off. A change or cut given only in a name is not applied to a line headed by its entry.
# UniProt P00813: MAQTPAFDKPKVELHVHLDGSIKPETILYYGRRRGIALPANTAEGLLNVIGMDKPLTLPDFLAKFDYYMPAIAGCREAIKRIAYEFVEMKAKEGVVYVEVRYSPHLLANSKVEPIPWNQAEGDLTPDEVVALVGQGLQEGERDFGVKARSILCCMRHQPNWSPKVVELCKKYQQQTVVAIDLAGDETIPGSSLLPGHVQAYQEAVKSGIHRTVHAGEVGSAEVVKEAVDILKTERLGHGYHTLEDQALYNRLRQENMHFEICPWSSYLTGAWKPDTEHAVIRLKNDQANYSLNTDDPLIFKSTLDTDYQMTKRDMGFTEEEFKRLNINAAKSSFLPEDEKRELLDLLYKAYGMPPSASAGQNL
# UniProt O43488: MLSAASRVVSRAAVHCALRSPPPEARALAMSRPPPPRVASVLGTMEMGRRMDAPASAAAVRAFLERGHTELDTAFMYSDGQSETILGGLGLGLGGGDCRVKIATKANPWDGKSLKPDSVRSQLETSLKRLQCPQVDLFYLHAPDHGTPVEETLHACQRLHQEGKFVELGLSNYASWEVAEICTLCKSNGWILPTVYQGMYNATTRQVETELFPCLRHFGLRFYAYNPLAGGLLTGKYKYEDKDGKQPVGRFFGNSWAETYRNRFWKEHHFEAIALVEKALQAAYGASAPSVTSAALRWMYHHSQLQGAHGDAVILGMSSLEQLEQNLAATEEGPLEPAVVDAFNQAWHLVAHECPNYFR
# UniProt Q10567: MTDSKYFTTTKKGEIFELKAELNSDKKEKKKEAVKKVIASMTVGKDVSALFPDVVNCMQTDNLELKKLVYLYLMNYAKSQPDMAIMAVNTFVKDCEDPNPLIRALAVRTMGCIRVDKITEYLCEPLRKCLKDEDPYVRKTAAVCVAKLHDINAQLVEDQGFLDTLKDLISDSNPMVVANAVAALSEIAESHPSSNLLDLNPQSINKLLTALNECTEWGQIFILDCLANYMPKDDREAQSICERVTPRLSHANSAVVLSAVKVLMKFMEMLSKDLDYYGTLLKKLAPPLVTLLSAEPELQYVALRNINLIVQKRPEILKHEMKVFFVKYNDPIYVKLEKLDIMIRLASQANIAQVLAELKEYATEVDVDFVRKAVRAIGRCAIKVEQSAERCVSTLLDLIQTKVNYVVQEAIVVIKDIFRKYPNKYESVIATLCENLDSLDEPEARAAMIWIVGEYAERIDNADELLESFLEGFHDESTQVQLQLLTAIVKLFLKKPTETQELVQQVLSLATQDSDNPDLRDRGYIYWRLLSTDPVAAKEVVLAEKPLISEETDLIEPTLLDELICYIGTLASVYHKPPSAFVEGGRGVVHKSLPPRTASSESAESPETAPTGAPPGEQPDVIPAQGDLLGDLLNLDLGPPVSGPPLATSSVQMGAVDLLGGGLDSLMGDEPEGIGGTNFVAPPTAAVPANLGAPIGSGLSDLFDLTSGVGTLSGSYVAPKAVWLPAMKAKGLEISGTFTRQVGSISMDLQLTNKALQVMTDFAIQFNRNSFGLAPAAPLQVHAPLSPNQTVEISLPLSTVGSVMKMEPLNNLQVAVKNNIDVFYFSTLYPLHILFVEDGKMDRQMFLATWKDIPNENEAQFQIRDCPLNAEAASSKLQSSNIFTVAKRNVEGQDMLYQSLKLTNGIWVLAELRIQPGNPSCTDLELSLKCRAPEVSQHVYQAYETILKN
# UniProt P31751: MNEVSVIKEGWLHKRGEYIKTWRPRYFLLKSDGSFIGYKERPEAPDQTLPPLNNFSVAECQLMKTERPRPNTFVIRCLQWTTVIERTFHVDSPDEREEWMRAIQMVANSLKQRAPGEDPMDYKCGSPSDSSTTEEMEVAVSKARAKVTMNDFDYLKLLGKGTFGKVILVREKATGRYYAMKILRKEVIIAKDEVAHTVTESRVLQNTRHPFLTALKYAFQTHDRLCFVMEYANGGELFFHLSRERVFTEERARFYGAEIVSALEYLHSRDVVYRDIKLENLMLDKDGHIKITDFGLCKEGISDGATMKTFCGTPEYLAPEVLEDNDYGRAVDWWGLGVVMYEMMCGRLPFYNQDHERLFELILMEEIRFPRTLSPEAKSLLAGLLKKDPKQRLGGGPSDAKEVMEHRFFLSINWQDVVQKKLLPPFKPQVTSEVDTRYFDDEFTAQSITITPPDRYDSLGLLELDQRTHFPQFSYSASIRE
# UniProt O00203: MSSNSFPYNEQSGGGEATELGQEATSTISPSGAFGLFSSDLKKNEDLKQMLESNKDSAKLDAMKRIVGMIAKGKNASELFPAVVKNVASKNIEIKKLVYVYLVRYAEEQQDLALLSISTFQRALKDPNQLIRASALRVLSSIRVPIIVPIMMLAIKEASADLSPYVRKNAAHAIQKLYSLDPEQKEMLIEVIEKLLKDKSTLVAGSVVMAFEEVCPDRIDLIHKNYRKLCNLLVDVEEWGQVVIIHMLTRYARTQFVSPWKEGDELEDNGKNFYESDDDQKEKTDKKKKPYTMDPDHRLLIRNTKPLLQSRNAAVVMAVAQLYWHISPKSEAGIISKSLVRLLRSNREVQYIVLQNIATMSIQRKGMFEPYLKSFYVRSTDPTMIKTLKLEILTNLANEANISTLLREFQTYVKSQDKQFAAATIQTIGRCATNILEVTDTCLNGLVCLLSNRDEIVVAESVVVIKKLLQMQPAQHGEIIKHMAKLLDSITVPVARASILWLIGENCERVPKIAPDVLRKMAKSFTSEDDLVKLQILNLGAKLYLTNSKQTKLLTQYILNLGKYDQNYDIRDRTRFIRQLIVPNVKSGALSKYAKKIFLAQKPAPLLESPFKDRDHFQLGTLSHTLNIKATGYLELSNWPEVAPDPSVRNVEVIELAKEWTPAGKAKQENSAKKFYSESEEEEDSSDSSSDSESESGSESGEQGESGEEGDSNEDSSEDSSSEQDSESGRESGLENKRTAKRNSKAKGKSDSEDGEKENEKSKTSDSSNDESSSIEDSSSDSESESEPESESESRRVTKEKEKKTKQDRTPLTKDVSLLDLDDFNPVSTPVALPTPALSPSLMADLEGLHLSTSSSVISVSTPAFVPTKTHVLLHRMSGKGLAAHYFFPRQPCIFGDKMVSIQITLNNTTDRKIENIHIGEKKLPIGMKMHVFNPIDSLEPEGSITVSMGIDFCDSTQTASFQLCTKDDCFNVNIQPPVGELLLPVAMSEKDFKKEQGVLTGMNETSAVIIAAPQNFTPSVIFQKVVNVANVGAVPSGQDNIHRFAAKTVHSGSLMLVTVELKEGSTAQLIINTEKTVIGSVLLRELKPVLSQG
# UniProt P04075: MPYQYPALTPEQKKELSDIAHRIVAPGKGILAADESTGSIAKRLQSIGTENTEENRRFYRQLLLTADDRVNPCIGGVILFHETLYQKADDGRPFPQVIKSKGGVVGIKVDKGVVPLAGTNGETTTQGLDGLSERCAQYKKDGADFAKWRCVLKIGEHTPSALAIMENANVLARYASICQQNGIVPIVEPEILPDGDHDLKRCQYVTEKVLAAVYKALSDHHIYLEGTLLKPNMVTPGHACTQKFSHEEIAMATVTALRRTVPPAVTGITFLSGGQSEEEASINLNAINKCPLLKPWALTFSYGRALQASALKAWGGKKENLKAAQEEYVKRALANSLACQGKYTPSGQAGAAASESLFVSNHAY
# UniProt P80404: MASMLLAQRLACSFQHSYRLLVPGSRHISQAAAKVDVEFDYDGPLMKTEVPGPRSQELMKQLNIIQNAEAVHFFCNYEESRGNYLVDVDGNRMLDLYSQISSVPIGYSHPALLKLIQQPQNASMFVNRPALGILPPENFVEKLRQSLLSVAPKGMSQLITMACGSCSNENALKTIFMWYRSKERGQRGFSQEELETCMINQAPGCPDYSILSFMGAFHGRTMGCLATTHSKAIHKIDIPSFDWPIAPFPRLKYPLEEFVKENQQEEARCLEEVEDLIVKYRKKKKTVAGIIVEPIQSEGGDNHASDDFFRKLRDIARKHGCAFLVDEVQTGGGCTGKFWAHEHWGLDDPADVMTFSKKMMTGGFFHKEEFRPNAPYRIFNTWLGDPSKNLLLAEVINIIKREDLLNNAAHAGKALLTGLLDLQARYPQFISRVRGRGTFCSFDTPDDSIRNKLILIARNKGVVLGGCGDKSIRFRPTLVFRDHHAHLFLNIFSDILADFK
# UniProt P53677: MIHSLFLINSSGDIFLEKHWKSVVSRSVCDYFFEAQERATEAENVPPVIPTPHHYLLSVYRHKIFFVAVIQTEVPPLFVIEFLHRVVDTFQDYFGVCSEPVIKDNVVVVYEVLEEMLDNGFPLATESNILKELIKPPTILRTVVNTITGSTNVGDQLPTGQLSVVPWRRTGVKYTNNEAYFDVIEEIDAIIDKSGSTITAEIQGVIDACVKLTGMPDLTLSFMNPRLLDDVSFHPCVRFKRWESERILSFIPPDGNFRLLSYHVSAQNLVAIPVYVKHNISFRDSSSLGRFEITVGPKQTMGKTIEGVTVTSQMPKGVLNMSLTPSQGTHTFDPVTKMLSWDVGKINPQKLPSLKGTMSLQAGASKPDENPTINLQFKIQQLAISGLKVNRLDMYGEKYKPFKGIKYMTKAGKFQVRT
# UniProt P27695, whole entry: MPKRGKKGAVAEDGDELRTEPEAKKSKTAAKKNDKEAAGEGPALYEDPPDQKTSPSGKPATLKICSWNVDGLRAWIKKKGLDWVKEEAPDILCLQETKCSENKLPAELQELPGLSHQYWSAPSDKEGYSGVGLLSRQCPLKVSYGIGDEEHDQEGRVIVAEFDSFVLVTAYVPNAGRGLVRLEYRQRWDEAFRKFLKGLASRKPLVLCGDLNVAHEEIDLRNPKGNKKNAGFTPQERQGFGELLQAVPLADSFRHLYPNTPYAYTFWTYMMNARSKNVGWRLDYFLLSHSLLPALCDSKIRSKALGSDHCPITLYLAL
# UniProt Q86W34: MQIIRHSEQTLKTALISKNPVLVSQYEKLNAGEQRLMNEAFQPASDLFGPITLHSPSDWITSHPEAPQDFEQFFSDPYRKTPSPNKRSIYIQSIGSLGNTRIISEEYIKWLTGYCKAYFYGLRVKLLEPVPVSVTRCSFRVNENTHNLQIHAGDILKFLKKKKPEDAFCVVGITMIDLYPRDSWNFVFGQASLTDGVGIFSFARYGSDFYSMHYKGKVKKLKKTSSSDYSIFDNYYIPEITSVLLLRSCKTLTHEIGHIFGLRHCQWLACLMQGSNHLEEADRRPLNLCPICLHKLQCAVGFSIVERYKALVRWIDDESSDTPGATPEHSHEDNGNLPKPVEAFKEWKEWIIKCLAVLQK
# UniProt A1A4S6: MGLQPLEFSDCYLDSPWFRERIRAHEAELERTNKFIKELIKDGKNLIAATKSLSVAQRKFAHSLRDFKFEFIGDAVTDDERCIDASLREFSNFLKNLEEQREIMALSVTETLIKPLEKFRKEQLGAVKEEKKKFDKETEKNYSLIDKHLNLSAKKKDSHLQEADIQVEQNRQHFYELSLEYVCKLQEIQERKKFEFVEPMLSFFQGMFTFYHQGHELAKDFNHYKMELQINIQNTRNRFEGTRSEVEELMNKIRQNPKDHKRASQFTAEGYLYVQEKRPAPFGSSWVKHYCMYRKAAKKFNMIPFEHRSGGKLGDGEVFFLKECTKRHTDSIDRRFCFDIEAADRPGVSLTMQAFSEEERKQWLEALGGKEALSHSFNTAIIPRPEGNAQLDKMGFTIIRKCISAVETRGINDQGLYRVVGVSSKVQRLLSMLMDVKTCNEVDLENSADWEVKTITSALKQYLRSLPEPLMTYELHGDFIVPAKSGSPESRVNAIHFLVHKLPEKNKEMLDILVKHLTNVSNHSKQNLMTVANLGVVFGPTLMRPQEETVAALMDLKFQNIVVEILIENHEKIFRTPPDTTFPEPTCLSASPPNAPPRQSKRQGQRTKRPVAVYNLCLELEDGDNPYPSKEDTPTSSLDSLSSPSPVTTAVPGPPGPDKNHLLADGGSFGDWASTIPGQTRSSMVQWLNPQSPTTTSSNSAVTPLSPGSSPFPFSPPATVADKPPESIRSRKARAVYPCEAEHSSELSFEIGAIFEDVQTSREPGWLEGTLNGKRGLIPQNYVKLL
# UniProt Q53RE8: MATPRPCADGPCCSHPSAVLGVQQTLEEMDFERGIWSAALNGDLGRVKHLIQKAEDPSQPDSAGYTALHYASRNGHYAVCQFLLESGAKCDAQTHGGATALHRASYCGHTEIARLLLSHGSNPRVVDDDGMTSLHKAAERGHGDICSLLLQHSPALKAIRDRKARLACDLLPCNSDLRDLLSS
# Compound: Nc1nc2c(ncn2[C@@H]2O[C@H](COP(=O)(O)OP(=O)(O)OP(=O)(O)O)[C@@H](O)[C@H]2O)c(=O)[nH]1
# Assay: dose-dependent thermal stabilisation call (2D-TPP, DLPTP, 10% FDR) (binary (1 = stabilised)); higher = stabilised by the compound
# Details: system: Jurkat gel-filtered lysate; concentration range 1-500 µM
row,Target,dose-dependent thermal stabilisation call
1,AFF1 (UniProt P51825),inactive: 0
2,ANKRD54 (UniProt Q6NXT1),inactive: 0
3,AGAP2 (UniProt Q99490),inactive: 0
4,ADA (UniProt P00813),inactive: 0
5,ANKMY2 (UniProt Q8IV38),active: 1
6,AKR7A2 (UniProt O43488),active: 1
7,AP1B1 (UniProt Q10567),inactive: 0
8,AKT2 (UniProt P31751),inactive: 0
9,AGO3 (UniProt Q9H9G7),inactive: 0
10,AP3B1 (UniProt O00203),inactive: 0
11,ALDOA (UniProt P04075),inactive: 0
12,ARHGAP12 (UniProt Q8IWW6),active: 1
13,ANKRD52 (UniProt Q8NB46),inactive: 0
14,ACTL6A (UniProt O96019),inactive: 0
15,ACTN1 (UniProt P12814),inactive: 0
16,ACO1 (UniProt P21399),inactive: 0
17,ABAT (UniProt P80404),inactive: 0
18,AFDN (UniProt P55196),inactive: 0
19,AP3M2 (UniProt P53677),inactive: 0
20,AHCY (UniProt P23526),inactive: 0
21,APEX1 (UniProt P27695),inactive: 0
22,AMZ2 (UniProt Q86W34),inactive: 0
23,AP3S2 (UniProt P59780),active: 1
24,AP1G1 (UniProt O43747),inactive: 0
25,ARHGAP10 (UniProt A1A4S6),inactive: 0
26,AKT1S1 (UniProt Q96B36),inactive: 0
27,ANKRD39 (UniProt Q53RE8),inactive: 0

# Shown with bars between the fields: entries from further up
row | Target | dose-dependent thermal stabilisation call
12 | ARHGAP12 (UniProt Q8IWW6) | active: 1
13 | ANKRD52 (UniProt Q8NB46) | inactive: 0

# Reference: the supplement of paper PMC7666118
